Assay results: the supplement of paper PMC8732350
Structures can show the parent of a compound that is named as a salt. ± gives the standard deviation of the averaged measurements. The list shows a part of the results. This data set is noisy: repeats of one test often differ as much as different tests do.

System: A549
Test: surface PD-L1 immunofluorescence intensity relative to IFN-gamma-only control (ratio); higher = more PD-L1 expression
Details: 10 µM; exposure time 24 h; IFN-gamma 100 ng/mL

SMILES	surface PD-L1 immunofluorescence intensity
CN(C)Cc1cccc(N/C(=C2\C(=O)Nc3cc(C(N)=O)ccc32)c2ccccc2)c1	1.08
O=C(O)Cc1sc(-c2ccccc2)nc1-c1ccc(Cl)cc1 [Fentiazac]	1.02
CC(=O)OCC(=O)[C@@]12N=C(C)O[C@@H]1C[C@H]1[C@@H]3CCC4=CC(=O)C=C[C@]4(C)[C@H]3[C@@H](O)C[C@@]12C [Deflazacort]	0.889
CC(=O)OCC(=O)[C@@]12N=C(C)O[C@@H]1C[C@H]1[C@@H]3CCC4=CC(=O)C=C[C@]4(C)[C@H]3[C@@H](O)C[C@@]12C [Deflazacort (Calcort)]	0.872
C#CCN1C(C)=C(C(=O)OC)C(c2cccc([N+](=O)[O-])c2)C(C(=O)OCC)=C1C (stereo unspecified)	0.962
OCc1cc(C(O)CNCCCCCCOCCCCc2ccccc2)ccc1O (stereo unspecified) [Salmeterol]	0.982 ± 0.026
Cc1nc2n(c(=O)c1CCN1CCC(c3noc4cc(F)ccc34)CC1)CCCC2 [Risperidone]	1.04
CNCCC(Oc1ccc(C(F)(F)F)cc1)c1ccccc1 (stereo unspecified) [Fluoxetine hydrochloride]	1.04 ± 0.043
C[C@@H](CN1CC(=O)NC(=O)C1)N1CC(=O)NC(=O)C1 [Dexrazoxane HCl]	1.01
COc1ccc(Nc2ncnc3ccc(OC)cc23)cc1 [MPMQ hydrochloride]	0.888
O=S(=O)(O)CCS [Mesna]	1.07
CCn1cc(C(=O)O)c(=O)c2cnc(N3CCCC3)nc21 [Piromidic acid]	1.08
CC(C)(C)NC[C@H](O)c1ccc(O)c(CO)c1 [Levalbuterol hydrochloride]	1.03
CCCCNC(=O)NS(=O)(=O)c1ccc(C)cc1 [Tolbutamide]	0.894 ± 0.046
C[C@@H]1O[C@@H](O[C@H]2[C@H](Oc3cc(O)c(C(=O)CCc4ccc(O)cc4)c(O)c3)O[C@H](CO)[C@@H](O)[C@@H]2O)[C@H](O)[C@H](O)[C@H]1O [Naringin Dihydrochalcone (Naringin DC)]	1.05
c1ccc2c(-c3ccncc3)c[nH]c2c1 [Rockout]	1.04
CCOC(=O)OC(C)OC1=C(C(=O)Nc2ccccn2)N(C)S(=O)(=O)c2ccccc21 (stereo unspecified) [Ampiroxicam]	1.01
O=C(Nc1c(Cl)cncc1Cl)c1ccc(OC(F)F)c(OCC2CC2)c1 [Roflumilast (Daxas)]	1.07
CCCS(=O)(=O)Nc1ccc(F)c(C(=O)c2c[nH]c3ncc(-c4ccc(Cl)cc4)cc23)c1F [Vemurafenib (PLX4032)]	1.13 ± 0.037
NC(=O)c1ncn([C@@H]2O[C@H](CO)[C@@H](O)[C@H]2O)n1 [Ribavirin]	1.06
NC(=O)c1ncn([C@@H]2O[C@H](CO)[C@@H](O)[C@H]2O)n1 [Ribavirin (Copegus)]	0.998
CCC(CC)(CC(=O)Nc1cccc(/C=C/c2nc(C3CCC3)cs2)c1)C(=O)O [Cinalukast]	0.954
CCOc1ccc2c(c1)C(C)=CC(C)(C)N2 [Ethoxyquin]	0.992 ± 0.083

SMILES	surface PD-L1 immunofluorescence intensity
CCOC(=O)[C@H](CCc1ccccc1)N[C@@H](C)C(=O)N1[C@H](C(=O)O)C[C@@H]2CCC[C@@H]21 [Ramipril]	1.01
CCOC(=O)[C@H](CCc1ccccc1)N[C@@H](C)C(=O)N1[C@H](C(=O)O)C[C@@H]2CCC[C@@H]21 [Ramipril (Altace)]	1.08
CNC(=O)c1ccc(-c2cnc3ncc(Cc4ccc5ncccc5c4)n3n2)cc1F	0.877
Cc1ccc(S(=O)(=O)n2c(N)nc3ccccc32)cc1	0.992
CC(C)COCC(CN(Cc1ccccc1)c1ccccc1)N1CCCC1 (stereo unspecified) [Bepridil]	0.929
CC(C)COCC(CN(Cc1ccccc1)c1ccccc1)N1CCCC1 (stereo unspecified) [Bepridil hydrochloride]	0.959
COc1ccc(-c2nc3cc(C4=NNC(=O)CC4C)ccc3[nH]2)cc1 (stereo unspecified) [Pimobendan (Vetmedin)]	1.12
NS(=O)(=O)c1cc2c(cc1Cl)N=CNS2(=O)=O [Chlorothiazide]	0.83
CNC(=O)[C@@H](Cc1ccccc1)N(C)C(=O)[C@@H](Cc1ccc2ccccc2c1)N(C)C(=O)/C=C/CC(C)(C)N [Tabimorelin]	0.938
CNS(=O)(=O)Cc1ccc2[nH]cc(CCN(C)C)c2c1 [Sumatriptan succinate]	1.03 ± 0.035
O=c1c(O)c(-c2ccc(O)c(O)c2)oc2cc(O)ccc12 [Fisetin (Fustel)]	1.04
COc1cc2ncnc(Oc3cccc(NC(=O)Nc4cc(C(C)(C)C(F)(F)F)on4)c3)c2cc1OC	0.952 ± 0.032
CN[C@H](CC(C)C)C(=O)N[C@H]1C(=O)N[C@@H](CC(N)=O)C(=O)N[C@H]2C(=O)N[C@H]3C(=O)N[C@H](C(=O)N[C@H](C(=O)O)c4cc(O)cc(O)c4-c4cc3ccc4O)[C@H](O)c3ccc(c(Cl)c3)Oc3cc2cc(c3O[C@@H]2O[C@H](CO)[C@@H](O)[C@H](O)[C@H]2O[C@H]2C[C@](C)(N)[C@H](O)[C@H](C)O2)Oc2ccc(cc2Cl)[C@H]1O [Vancomycin hydrochloride]	1.1
CCS(=O)(=O)N(C)[C@H]1c2cc(C#N)ccc2OC(C)(C)[C@@H]1O [(-)-[3R,4S]-Chromanol 293B]	0.989
COc1cc(C(=O)NS(=O)(=O)c2ccccc2C)ccc1Cc1cn(C)c2ccc(NC(=O)OC3CCCC3)cc12 [Zafirlukast]	1.04
CCc1cncnc1N1CCN(Cc2nc3ccc(C(F)(F)F)cc3[nH]2)CC1	1.04 ± 0.064
NS(=O)(=O)c1cc(C(=O)O)c(NCc2ccco2)cc1Cl [Furosemide]	1.06
CCOc1cc([C@@H](CS(C)(=O)=O)N2C(=O)c3cccc(NC(C)=O)c3C2=O)ccc1OC	1
CN(C)C(=O)COC(=O)Cc1ccc(OC(=O)c2ccc(NC(=N)N)cc2)cc1 [Camostat Mesilate (FOY-305)]	0.984
O=[N+]([O-])c1cccc2c(Br)[nH]nc12 [3-Bromo-7-nitroindazole]	1.21
CC(Cc1ccccc1)(NC(=O)CN)c1ccccc1 (stereo unspecified) [Remacemide hydrochloride]	0.977
N=C(N)NC(=O)c1nc(Cl)c(N)nc1N [Amiloride hydrochloride dihydrate]	0.823
N=C(N)NC(=O)c1nc(Cl)c(N)nc1N [Amiloride hydrochloride]	1.06

Already shown: an excerpt of the list.
SMILES	surface PD-L1 immunofluorescence intensity
COc1ccc(-c2nc3cc(C4=NNC(=O)CC4C)ccc3[nH]2)cc1 (stereo unspecified) [Pimobendan (Vetmedin)]	1.12
NS(=O)(=O)c1cc2c(cc1Cl)N=CNS2(=O)=O [Chlorothiazide]	0.83
